From PubChem BioAssay AID485353 (National Center for Advancing Translational Sciences (NCATS), 2010)
The campaign covered roughly 330,000 compounds. About 610 (0.18%) were called active. Inconclusive results, whose numbers are uncertain, are shown with a selection of clear calls. Calls follow the shape of the full dose curve. Potencies of inconclusive entries are doubtful fits and often do not repeat.
Potency is read from the fitted curve at half-maximal effect.

Assay: qHTS of Yeast-based Assay for SARS-CoV PLP; also: nearly all actives have a fitted effect of over 55% in size
Settings: S. cerevisiae expressing SARS-CoV PLpro; Potency: growth rescue; series mostly up to 32.9 µM
With `O=C1C=C(c2ccc3c(c2)OCO3)C[C@@H](c2ccc3c(c2)OCO3)C1` the Potency was “inactive”.
In the case of `COc1ccc(NC(=O)N2CCC(n3nnc4cc(C)ccc43)CC2)cc1`, the Potency is reported as inconclusive: 10 µM [activator, single point].
With `COc1ccc(-c2cc(=O)oc3cc(OC(C)C(=O)NCc4ccccn4)ccc23)cc1` (stereo not given) the Potency was active: 3.98 µM.
With `N#Cc1ccccc1NC(=O)c1ccc2c(Cl)c3c(nc2c1)CCCC3` the Potency was inconclusive: 0.891 µM [activator, full curve].
For `O=C(CSc1nc2ccccc2s1)NCC1CCCO1` (stereo not given), the Potency was inconclusive: 20 µM [activator, single point].
In the case of `CCC1=C(OC(=O)N(CC)CC)N2C(=O)OC(=NCCc3c[nH]c4ccccc34)[C@]2(C)[C@H]2C1=CC[C@H]1C(=O)N(C)C(=O)[C@H]12`, the Potency is reported as “inactive”.
With `O=C1C(c2cc(=O)c3ccccc3[nH]2)=C(O)c2ccccc21` the Potency was “inactive”.
With `CCOc1ccc(N2C(=O)CC(Cc3ccccc3OC)C2=O)cc1` (stereo not given) the Potency was inconclusive: 20 µM [activator, single point].
With `CC(C)n1cnc2c(N(C)c3ccccc3)nc(N(CCN(C)C)Cc3ccccc3)nc21` the Potency was “inactive”.
In the case of `Cc1c(C(=O)NCc2ccccc2)oc2ccc(S(=O)(=O)N3CCC4(CC3)OCCO4)cc12`, the Potency is reported as “inactive”.
With `CC(C(=O)Nc1ccccc1)N(C)CCOc1ccc(Br)cc1` (stereo not given) the Potency was “inactive”.
In the case of `CN1CC(c2ccccc2)C(c2ccc(Cl)cc2)=N1` (stereo not given), the Potency is reported as inconclusive: 2.82 µM [activator, full curve, poor fit].
With `COc1ccc(NC(=O)CSc2nccc(C)n2)cc1` the Potency was inconclusive: 4.47 µM [activator, single point].
In the case of `N/C(=N\OC(=O)c1ccc2ccccc2c1)c1ccccn1`, the Potency is reported as inconclusive: 17.8 µM [activator, single point].
For `Cc1cc(C)c2c(N)c3cccc(C)c3nc2n1`, the Potency was inconclusive: 20 µM [activator, single point].
For `CC1=Nc2cc(C(=O)NCCCOC(C)C)ccc2Sc2ccccc21`, the Potency was “inactive”.
For `O=C(NNC(=O)C1CCN(S(=O)(=O)c2ccc(Cl)cc2)CC1)c1ccc(Cl)cc1`, the Potency was inconclusive: 3.98 µM [activator, single point].
With `CCCCC(=O)NNC(=S)NC(=O)CCC` the Potency was active: 15.8 µM.
In the case of `Cc1ccccc1C(=O)NC1CCN(CC(=O)Nc2ccc(Br)cc2)CC1`, the Potency is reported as inconclusive: 8.91 µM [activator, partial curve].
For `COc1cc(OC)cc(-c2n[nH]c(=S)n2-c2cc(OC)ccc2OC)c1`, the Potency was inconclusive: 14.1 µM [activator, partial curve].
